# Data: the supplement of paper PMC8256030
# Values joined by “and” are separate entries in the source; they are usually repeats but may differ in a detail not shown here. Identical values can stand only once. This is one part of the list. Single values are uncertain here, since repeats match poorly.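 HEK293T cells were given each compound shortly before transfection with a reporter in which red mCherry is followed by the SARS-CoV-2 frameshift element and then GFP in the −1 frame, so GFP appears only after frameshifting.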
# System: SARS-CoV-2 -1 PRF reporter mCherry-FSE-GFP(-1)
# Assay: percent effect, decrease of GFP/mCherry ratio (-1 PRF reporter) relative to controls; higher = stronger frameshift inhibition
# Details: 10 µM; 24 h; HEK293T
row,SMILES,percent effect
1,COC(=O)Nc1nc2cc(Sc3ccccc3)ccc2[nH]1 [fenbendazole],-16.3% and -10.6%
2,Cn1c(=O)c2c(ncn2CC2OCCO2)n(C)c1=O [doxofylline],-1.46% and -13.9%
3,Cc1ccccc1C(OCCN(C)C)c1ccccc1 (stereo not drawn) [orphenadrine],-2.45% and 1.8%
4,COC(=O)C1=C(C)NC(C)=C(C(=O)OCC(C)C)C1c1ccccc1[N+](=O)[O-] (stereo not drawn) [nisoldipine],2.87% and -6.36%
5,Cc1oncc1C(=O)Nc1ccc(C(F)(F)F)cc1 [leflunomide],0.451% and -6.62%
6,CC[C@H]1OC(=O)[C@H](C)[C@@H](O[C@H]2C[C@@](C)(OC)[C@@H](O)[C@H](C)O2)[C@H](C)[C@@H](O[C@@H]2O[C@H](C)C[C@H](N(C)C)[C@H]2O)[C@](C)(OC)C[C@@H](C)C(=O)[C@H](C)[C@@H](O)[C@]1(C)O [clarithromycin],-2.4% and -4.78%
7,CNCCC(Oc1ccc(C(F)(F)F)cc1)c1ccccc1 (stereo not drawn) [fluoxetine],-0.269% and -2.69%
8,COc1cc(NS(=O)(=O)c2ccc(N)cc2)nc(OC)n1 [sulfadimethoxine],-5.52% and -1.28%
